{"source": "PubChem BioAssay AID686943, Drosophila RNAi Screening Center, 2013", "test": "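Search across the genome for regulators of signalling from receptor tyrosine kinase to ERK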 (primary screen)", "cell system": "Drosophila S2R+ haemocyte-like cells expressing YFP-tagged ERK (Rolled)", "knock-down reagent": "long dsRNA against Drosophila genes", "conditions": "insulin stimulation versus unstimulated cells; dose and duration not given", "read-out": "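Per-plate z-scores of phospho-ERK immunostaining normalised to YFP-tagged ERK, measured with and without insulin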", "reading the numbers": "replicate 1, z-score of dpERK with insulin and replicate 2, z-score of dpERK with insulin: higher = more active ERK per ERK-YFP after insulin", "note": "The screen tested about 23,000 reagents; below is a random part of those with a known target gene and a result. 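Extra replicates exist only for a retested subset of genes; insulin dose and duration not given; both raised and lowered dpERK matter.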 A plus sign joins genes that one reagent is predicted to hit. Not all columns of the deposit are shown. Reagent sequences are not shown. The record does not give: the amount of reagent, the time to read-out."}
{"target gene":"CG42238","DRSC id":"DRSC03180","replicate 1, z-score of dpERK with insulin":0.21,"replicate 2, z-score of dpERK with insulin":0.4}
{"target gene":"Lgr4 (Leucine-rich repeat-containing G protein-coupled receptor 4)","DRSC id":"DRSC18969","replicate 1, z-score of dpERK with insulin":0.42,"replicate 2, z-score of dpERK with insulin":0.37}
{"target gene":"Lgr4 (Leucine-rich repeat-containing G protein-coupled receptor 4)","DRSC id":"DRSC18970","replicate 1, z-score of dpERK with insulin":-0.12,"replicate 2, z-score of dpERK with insulin":1.16}
{"target gene":"Lgr4 (Leucine-rich repeat-containing G protein-coupled receptor 4)","DRSC id":"DRSC19884","replicate 1, z-score of dpERK with insulin":0.04,"replicate 2, z-score of dpERK with insulin":0.17}
{"target gene":"CG34054","DRSC id":"DRSC05277","replicate 1, z-score of dpERK with insulin":0.54,"replicate 2, z-score of dpERK with insulin":0.38}
{"target gene":"CG8064","DRSC id":"DRSC16373","replicate 1, z-score of dpERK with insulin":0.16,"replicate 2, z-score of dpERK with insulin":-0.1}
{"target gene":"CG14855","DRSC id":"DRSC14979","replicate 1, z-score of dpERK with insulin":0.25,"replicate 2, z-score of dpERK with insulin":-0.17}
{"target gene":"CG15429","DRSC id":"DRSC00444","replicate 1, z-score of dpERK with insulin":1.01,"replicate 2, z-score of dpERK with insulin":0.62}
{"target gene":"Acox57D-p (acyl-Coenzyme A oxidase at 57D proximal)","DRSC id":"DRSC04560","replicate 1, z-score of dpERK with insulin":0.29,"replicate 2, z-score of dpERK with insulin":0.08}
{"target gene":"Cyp4e2 (Cytochrome P450 4e2)","DRSC id":"DRSC07371","replicate 1, z-score of dpERK with insulin":-0.13,"replicate 2, z-score of dpERK with insulin":0.05}
{"target gene":"AGBE (1,4-Alpha-Glucan Branching Enzyme)","DRSC id":"DRSC06861","replicate 1, z-score of dpERK with insulin":1.2,"replicate 2, z-score of dpERK with insulin":0.21}
{"target gene":"Nadsyn (NAD synthetase)","DRSC id":"DRSC20222","replicate 1, z-score of dpERK with insulin":0.48,"replicate 2, z-score of dpERK with insulin":0.75}
{"target gene":"mib1 (mind bomb 1)","DRSC id":"DRSC10550","replicate 1, z-score of dpERK with insulin":0.78,"replicate 2, z-score of dpERK with insulin":2.27}
{"target gene":"FASN1 (Fatty acid synthase 1)","DRSC id":"DRSC00268","replicate 1, z-score of dpERK with insulin":2,"replicate 2, z-score of dpERK with insulin":2.19}
{"target gene":"CG1529","DRSC id":"DRSC20515","replicate 1, z-score of dpERK with insulin":0.04,"replicate 2, z-score of dpERK with insulin":-1.02}
{"target gene":"Met75Ca + Met75Cb","DRSC id":"DRSC09549","replicate 1, z-score of dpERK with insulin":1.19,"replicate 2, z-score of dpERK with insulin":1.32}
{"target gene":"Met75Ca + Met75Cb","DRSC id":"DRSC11221","replicate 1, z-score of dpERK with insulin":-0.16,"replicate 2, z-score of dpERK with insulin":0.43}
{"target gene":"CG9130 + CG9133","DRSC id":"DRSC08624","replicate 1, z-score of dpERK with insulin":1.42,"replicate 2, z-score of dpERK with insulin":0.17}
{"target gene":"CG9130 + CG9133","DRSC id":"DRSC08625","replicate 1, z-score of dpERK with insulin":-0.37,"replicate 2, z-score of dpERK with insulin":-0.38}
{"target gene":"CG9130 + CG9133","DRSC id":"DRSC22010","replicate 1, z-score of dpERK with insulin":-0.01,"replicate 2, z-score of dpERK with insulin":-0.42}
{"target gene":"CG17734","DRSC id":"DRSC15256","replicate 1, z-score of dpERK with insulin":0.63,"replicate 2, z-score of dpERK with insulin":0.19}
{"target gene":"CG13344","DRSC id":"DRSC06378","replicate 1, z-score of dpERK with insulin":0.58,"replicate 2, z-score of dpERK with insulin":0.67}
{"target gene":"CG31419","DRSC id":"DRSC15771","replicate 1, z-score of dpERK with insulin":-1.03,"replicate 2, z-score of dpERK with insulin":0}
{"target gene":"hiw (highwire)","DRSC id":"DRSC20338","replicate 1, z-score of dpERK with insulin":1.23,"replicate 2, z-score of dpERK with insulin":0.53}
{"target gene":"hiw (highwire)","DRSC id":"DRSC20339","replicate 1, z-score of dpERK with insulin":-1.23,"replicate 2, z-score of dpERK with insulin":-0.68}
{"target gene":"Caper","DRSC id":"DRSC02137","replicate 1, z-score of dpERK with insulin":1.33,"replicate 2, z-score of dpERK with insulin":-0.2}
{"target gene":"CG5521","DRSC id":"DRSC15828","replicate 1, z-score of dpERK with insulin":-0.31,"replicate 2, z-score of dpERK with insulin":0.05}
{"target gene":"CG8728","DRSC id":"DRSC07251","replicate 1, z-score of dpERK with insulin":0.17,"replicate 2, z-score of dpERK with insulin":-0.36}
{"target gene":"CSN5 (COP9 signalosome subunit 5)","DRSC id":"DRSC16592","replicate 1, z-score of dpERK with insulin":0.6,"replicate 2, z-score of dpERK with insulin":0.5}
{"target gene":"CSN5 (COP9 signalosome subunit 5)","DRSC id":"DRSC22381","replicate 1, z-score of dpERK with insulin":0.68,"replicate 2, z-score of dpERK with insulin":-0.68}
{"target gene":"CG6592","DRSC id":"DRSC10669","replicate 1, z-score of dpERK with insulin":-0.13,"replicate 2, z-score of dpERK with insulin":0.25}

Targets above whose target name begins with M or m:
{"target gene":"mib1 (mind bomb 1)","DRSC id":"DRSC10550","replicate 1, z-score of dpERK with insulin":0.78,"replicate 2, z-score of dpERK with insulin":2.27}
{"target gene":"Met75Ca + Met75Cb","DRSC id":"DRSC09549","replicate 1, z-score of dpERK with insulin":1.19,"replicate 2, z-score of dpERK with insulin":1.32}
{"target gene":"Met75Ca + Met75Cb","DRSC id":"DRSC11221","replicate 1, z-score of dpERK with insulin":-0.16,"replicate 2, z-score of dpERK with insulin":0.43}
